Test results reported in the supplement of paper PMC11006884.
Shown are results outside the selection of targets with a hit, which stands elsewhere. This is a noisy data set. Only a part is listed here, and it is no random draw.

Compound: COC(=O)/C=C/c1ccccc1 [methyl cinnamate]
Test: log2 ratio of iodoacetamide-alkyne labeling of the cysteine site, DMSO over compound (competition); higher = stronger covalent engagement of the cysteine by the compound, active = 1 or more
Conditions: 500 µM; treatment time 1 h; system: HEK293T cell lysate
In short: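 Three replicates, each with duplicate channels, were prepared from HEK293T lysate (2 mg/mL) treated with vehicle or electrophile at 500 µM for 1 h at ambient temperature. Iodoacetamide alkyne was then applied for 1 h, and samples were clicked to sCIP-TMT reagents, pooled, trypsin-digested overnight at 37 °C, enriched on streptavidin, acid-eluted and analysed on Orbitrap Eclipse LC-MS/MS with FAIMS, with FragPipe quantification. The log2 competition ratio per cysteine is the mean control-channel divided by the mean compound-channel reporter intensity. Cysteines quantified in only one replicate were left out.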

log2 ratio of iodoacetamide-alkyne labeling, inactive:
FNBP1 C609 (UniProt Q96RU3) 0.0449, CRBN C188 (UniProt Q96SW2) -0.17, RSF1 C944 (UniProt Q96T23) 0.0975, UHRF1 C497 (UniProt Q96T88) 0.19, MACROD1 C199 (UniProt Q9BQ69) 0.042, ACO2 C448 (UniProt Q99798) 0.285, VAT1 C50 (UniProt Q99536) 0.105, WDR24 C474 (UniProt Q96S15) 0.00859, L3MBTL3 C169 (UniProt Q96JM7) 0.465, NCAPG C966 (UniProt Q9BPX3) 0.146, ZFR C974 (UniProt Q96KR1) 0.16, MMS19 C386 (UniProt Q96T76) 0.0911, NGLY1 C197 (UniProt Q96IV0) 0.0285, MIPEP C649 (UniProt Q99797) 0.634, SPAG5 C589 (UniProt Q96R06) -0.0142, UniProt Q99590_C478 0.38, SRPK1 C455 (UniProt Q96SB4) 0.152, PIK3R4 C899 (UniProt Q99570) 0.285, PSMD1 C806 (UniProt Q99460) 0.352, SNX27 C30 (UniProt Q96L92) 0.159, ZFR C899 (UniProt Q96KR1) 0.282, MYBBP1A C1031 (UniProt Q9BQG0) 0.18, PBK C22 (UniProt Q96KB5) 0.24, VCPIP1 C1178 (UniProt Q96JH7) 0.118, GRWD1 C11 (UniProt Q9BQ67) 0.352, EP400 C694 (UniProt Q96L91) 0.359, RNF5 C27 (UniProt Q99942) 0.0227, HNRNPAB C98 (UniProt Q99729) 0.211, TTC1 C28 (UniProt Q99614) 0.271, FUBP3 C125 (UniProt Q96I24) 0.0768, VPS39 C681 (UniProt Q96JC1) -0.18, ZNF48 C288 (UniProt Q96MX3) 0.266, RSF1 C1018 (UniProt Q96T23) -0.00941, YME1L1 C433 (UniProt Q96TA2) -0.132, MMS19 C549 (UniProt Q96T76) 0.174, CCDC138 C28 (UniProt Q96M89) 0.27, PASK C15 (UniProt Q96RG2) 0.216
